Test results taken from the supplement of paper PMC10849652.
This is one part of the list.

The chains behind the UniProt entries cited, without tags or fusion partners. Where a name states a change or a piece, a line headed by the entry shows the natural chain unless it says otherwise.
UniProt Q9BRT9, whole entry, looked up: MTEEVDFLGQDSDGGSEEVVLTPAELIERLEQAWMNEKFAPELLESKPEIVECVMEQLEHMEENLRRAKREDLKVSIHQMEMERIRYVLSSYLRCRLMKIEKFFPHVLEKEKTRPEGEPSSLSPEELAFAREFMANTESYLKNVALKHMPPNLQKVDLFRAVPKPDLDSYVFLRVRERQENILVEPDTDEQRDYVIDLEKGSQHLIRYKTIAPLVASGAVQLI
UniProt Q13227: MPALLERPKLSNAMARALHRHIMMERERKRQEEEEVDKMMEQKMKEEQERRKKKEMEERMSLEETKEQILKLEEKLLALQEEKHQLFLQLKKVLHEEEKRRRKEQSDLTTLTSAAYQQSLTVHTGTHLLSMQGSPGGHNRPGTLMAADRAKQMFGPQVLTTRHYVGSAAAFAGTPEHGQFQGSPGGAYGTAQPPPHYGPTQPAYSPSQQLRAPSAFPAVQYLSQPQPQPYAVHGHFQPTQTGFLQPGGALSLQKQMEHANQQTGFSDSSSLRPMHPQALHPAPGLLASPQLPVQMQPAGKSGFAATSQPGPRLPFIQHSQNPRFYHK
UniProt Q08378: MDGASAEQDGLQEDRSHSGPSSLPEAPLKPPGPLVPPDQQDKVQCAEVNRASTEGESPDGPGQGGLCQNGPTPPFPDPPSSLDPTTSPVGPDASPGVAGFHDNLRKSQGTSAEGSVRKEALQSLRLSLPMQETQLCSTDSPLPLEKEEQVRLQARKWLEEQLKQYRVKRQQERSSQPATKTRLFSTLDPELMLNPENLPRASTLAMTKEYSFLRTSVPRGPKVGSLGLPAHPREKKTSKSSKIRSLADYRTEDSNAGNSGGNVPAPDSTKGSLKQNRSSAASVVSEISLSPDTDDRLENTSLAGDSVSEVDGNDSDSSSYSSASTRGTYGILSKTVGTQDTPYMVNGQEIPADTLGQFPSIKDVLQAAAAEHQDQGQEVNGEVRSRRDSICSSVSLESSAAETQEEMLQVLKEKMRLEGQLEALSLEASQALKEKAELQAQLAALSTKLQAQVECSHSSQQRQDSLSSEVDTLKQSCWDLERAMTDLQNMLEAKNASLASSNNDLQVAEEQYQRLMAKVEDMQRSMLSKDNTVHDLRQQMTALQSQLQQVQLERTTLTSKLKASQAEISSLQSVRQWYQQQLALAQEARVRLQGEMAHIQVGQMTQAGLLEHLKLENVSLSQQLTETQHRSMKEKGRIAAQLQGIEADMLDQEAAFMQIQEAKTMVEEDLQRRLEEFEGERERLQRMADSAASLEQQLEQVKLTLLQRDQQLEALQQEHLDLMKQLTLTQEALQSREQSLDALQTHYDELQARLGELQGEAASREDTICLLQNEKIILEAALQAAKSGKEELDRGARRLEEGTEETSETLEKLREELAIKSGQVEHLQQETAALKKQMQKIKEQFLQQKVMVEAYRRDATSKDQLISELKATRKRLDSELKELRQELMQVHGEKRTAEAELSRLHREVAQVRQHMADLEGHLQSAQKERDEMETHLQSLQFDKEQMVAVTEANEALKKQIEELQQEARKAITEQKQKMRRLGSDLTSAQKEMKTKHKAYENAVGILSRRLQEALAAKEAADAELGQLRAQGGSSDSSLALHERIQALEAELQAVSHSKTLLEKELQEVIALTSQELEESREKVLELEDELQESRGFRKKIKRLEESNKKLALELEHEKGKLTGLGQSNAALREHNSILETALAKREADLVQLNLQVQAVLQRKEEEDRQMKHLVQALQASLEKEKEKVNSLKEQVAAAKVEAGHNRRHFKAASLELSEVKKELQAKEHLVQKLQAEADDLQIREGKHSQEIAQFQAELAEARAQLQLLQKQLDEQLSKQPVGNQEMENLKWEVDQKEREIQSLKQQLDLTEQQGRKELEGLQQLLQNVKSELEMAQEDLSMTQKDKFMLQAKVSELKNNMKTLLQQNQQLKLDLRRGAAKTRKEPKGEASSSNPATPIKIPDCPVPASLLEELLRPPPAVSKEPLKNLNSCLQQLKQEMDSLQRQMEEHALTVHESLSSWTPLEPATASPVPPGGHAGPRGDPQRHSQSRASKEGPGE
UniProt P49915: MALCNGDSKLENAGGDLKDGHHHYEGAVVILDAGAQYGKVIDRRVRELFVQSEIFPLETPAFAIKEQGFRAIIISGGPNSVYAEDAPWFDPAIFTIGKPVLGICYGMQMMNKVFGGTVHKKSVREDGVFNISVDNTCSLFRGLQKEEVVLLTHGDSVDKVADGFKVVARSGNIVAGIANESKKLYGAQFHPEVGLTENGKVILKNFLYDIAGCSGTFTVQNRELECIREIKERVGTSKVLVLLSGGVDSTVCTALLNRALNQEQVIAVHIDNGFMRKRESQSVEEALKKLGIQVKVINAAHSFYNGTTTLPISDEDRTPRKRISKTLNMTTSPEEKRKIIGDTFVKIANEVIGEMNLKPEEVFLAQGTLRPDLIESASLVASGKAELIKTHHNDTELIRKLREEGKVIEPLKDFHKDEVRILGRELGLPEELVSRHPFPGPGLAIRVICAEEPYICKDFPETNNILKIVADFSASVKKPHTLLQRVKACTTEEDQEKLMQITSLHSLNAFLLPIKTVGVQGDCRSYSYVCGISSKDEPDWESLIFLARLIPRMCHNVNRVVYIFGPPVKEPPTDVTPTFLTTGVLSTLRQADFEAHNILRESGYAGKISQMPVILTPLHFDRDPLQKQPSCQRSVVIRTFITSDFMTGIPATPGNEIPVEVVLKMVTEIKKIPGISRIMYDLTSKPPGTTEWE
UniProt P38435: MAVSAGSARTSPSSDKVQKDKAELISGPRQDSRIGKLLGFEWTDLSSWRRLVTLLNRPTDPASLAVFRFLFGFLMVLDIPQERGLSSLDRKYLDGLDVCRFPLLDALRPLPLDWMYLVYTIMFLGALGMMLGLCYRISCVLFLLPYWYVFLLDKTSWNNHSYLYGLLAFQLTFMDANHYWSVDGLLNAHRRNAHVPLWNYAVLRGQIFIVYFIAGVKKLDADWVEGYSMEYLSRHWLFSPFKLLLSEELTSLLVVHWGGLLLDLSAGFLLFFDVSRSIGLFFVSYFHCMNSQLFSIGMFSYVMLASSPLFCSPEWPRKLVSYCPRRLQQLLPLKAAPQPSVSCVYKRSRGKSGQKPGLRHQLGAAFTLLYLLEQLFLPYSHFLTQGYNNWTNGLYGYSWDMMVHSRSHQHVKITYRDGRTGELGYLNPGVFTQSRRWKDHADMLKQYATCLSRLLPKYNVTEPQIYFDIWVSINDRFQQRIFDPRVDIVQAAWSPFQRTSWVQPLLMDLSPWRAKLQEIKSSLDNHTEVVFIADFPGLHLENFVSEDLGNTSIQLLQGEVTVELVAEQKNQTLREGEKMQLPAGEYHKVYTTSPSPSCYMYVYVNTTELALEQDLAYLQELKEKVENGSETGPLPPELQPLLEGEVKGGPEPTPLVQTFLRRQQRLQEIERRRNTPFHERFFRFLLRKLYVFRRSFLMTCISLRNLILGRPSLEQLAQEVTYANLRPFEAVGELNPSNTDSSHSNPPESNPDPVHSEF
UniProt P46926: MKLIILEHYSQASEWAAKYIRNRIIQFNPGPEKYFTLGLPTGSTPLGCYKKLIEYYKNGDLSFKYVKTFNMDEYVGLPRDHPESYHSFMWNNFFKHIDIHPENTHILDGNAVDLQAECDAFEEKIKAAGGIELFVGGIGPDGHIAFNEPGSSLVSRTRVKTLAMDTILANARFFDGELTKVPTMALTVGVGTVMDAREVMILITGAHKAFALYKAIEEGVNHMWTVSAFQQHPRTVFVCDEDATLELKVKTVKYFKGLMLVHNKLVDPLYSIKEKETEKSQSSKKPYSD
UniProt P00505: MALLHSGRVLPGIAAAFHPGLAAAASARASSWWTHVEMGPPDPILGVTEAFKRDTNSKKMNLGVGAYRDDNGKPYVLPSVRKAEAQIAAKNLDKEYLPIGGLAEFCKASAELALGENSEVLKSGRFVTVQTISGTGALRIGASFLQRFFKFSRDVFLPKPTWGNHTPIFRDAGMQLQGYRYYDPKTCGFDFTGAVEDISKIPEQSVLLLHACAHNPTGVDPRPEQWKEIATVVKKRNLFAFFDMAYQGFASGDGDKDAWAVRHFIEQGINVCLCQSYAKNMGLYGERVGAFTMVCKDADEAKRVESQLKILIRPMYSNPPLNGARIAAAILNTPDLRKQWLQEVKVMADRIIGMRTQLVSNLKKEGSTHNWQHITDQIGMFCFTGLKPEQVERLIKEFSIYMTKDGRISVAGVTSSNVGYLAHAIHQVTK
UniProt Q9P107: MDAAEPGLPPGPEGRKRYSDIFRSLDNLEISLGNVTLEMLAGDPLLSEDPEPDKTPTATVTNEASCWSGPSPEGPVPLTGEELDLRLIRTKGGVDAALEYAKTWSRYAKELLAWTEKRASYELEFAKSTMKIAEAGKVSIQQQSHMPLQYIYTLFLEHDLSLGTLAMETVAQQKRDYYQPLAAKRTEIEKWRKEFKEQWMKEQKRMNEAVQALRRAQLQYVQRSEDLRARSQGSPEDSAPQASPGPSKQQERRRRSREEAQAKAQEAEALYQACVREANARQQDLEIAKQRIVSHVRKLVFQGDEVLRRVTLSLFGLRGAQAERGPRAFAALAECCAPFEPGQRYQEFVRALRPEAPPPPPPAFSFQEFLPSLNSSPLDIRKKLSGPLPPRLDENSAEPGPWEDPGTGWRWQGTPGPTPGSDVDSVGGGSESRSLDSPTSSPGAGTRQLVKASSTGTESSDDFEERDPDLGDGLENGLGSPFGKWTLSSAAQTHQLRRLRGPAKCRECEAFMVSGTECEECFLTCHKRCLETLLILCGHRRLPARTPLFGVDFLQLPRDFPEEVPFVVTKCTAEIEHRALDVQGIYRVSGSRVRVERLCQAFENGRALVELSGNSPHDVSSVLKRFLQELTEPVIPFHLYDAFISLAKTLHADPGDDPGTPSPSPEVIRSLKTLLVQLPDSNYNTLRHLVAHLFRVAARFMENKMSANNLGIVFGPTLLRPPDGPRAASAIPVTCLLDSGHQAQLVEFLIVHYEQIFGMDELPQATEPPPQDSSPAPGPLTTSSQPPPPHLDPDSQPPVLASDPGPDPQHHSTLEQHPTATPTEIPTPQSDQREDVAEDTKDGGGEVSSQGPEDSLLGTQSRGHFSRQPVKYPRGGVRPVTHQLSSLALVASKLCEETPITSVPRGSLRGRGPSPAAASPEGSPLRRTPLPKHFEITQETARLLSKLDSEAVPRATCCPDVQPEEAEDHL
UniProt Q9BRR8: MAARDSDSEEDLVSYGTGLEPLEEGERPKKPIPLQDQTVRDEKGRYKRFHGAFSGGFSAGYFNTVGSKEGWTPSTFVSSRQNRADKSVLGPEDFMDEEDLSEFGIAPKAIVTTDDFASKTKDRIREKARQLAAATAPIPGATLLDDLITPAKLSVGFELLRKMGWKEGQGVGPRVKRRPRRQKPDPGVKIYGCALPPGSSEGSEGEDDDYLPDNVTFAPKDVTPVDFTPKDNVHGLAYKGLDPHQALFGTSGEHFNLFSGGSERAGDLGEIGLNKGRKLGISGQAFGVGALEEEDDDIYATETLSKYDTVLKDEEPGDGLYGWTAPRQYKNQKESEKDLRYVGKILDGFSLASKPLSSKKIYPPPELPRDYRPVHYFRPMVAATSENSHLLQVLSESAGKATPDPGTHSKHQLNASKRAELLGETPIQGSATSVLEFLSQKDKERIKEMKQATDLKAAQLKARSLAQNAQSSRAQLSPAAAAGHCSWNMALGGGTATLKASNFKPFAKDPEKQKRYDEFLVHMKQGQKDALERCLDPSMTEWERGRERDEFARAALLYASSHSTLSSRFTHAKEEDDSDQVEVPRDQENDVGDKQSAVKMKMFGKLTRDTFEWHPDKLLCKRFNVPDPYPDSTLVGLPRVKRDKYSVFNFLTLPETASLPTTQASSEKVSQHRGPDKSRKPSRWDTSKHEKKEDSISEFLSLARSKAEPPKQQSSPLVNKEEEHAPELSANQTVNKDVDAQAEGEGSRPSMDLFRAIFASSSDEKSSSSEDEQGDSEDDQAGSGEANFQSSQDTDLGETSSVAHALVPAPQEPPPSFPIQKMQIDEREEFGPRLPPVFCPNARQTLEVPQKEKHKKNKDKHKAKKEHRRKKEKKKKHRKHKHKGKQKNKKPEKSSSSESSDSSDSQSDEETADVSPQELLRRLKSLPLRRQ
UniProt Q5T7V8: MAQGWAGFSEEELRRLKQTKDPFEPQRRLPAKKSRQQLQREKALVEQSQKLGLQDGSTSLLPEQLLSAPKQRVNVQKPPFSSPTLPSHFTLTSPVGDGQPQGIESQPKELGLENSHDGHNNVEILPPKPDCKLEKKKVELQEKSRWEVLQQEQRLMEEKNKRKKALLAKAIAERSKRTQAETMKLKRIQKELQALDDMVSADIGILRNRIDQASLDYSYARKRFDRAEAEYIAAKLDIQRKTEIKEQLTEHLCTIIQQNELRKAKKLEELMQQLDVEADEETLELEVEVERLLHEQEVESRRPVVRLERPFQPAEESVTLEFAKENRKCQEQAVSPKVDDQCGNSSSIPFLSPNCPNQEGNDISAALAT

These targets were tested with C1=CC=C(C=C1)[C@H](COC2=CC3=C(C=C2)NC(=O)N3)NC(=O)C4=CC=CN(C4=O)CC5=CC(=C(C=C5)F)F (assay: log2 fold change, soluble protein after heating vs DMSO (PISA); higher = thermal stabilisation; K562 lysate, 10 uM; active = over 0.2 and 3.5 SD of the protein, either way, in both replicates (recomputed)).
Procedure, shortened: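 Quantification was by TMTpro 16plex LC-MS/MS with equalised channel sums, applied to the supernatant after 21,000xg for 90 min. Samples were crude K562 extract at 1 mg/mL protein in PBS pH 7.4 with 1 mM MgCl2, treated with 10 μM compound for 30 min, heated for 3 min across 48°C-58°C, pooled and brought to 0.5% NP-40 at 4°C. Values are log-two fold changes in thermal stability relative to solvent controls, from duplicates.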

Target | log2 fold change
GGA2 (UniProt Q9UJY4) | inactive: -0.055
GPHN isoform 2 (UniProt Q9NQX3) | inactive: 0.018
GINS4 (UniProt Q9BRT9) | inactive: 0.002
GOLIM4 (UniProt O00461) | inactive: 0.025
GIPC1 (UniProt O14908) | inactive: 0.025
GPBP1 isoform 2 (UniProt Q86WP2) | inactive: 0.124
GINS3 (UniProt Q9BRX5) | inactive: -0.033
GON4L (UniProt Q3T8J9) | inactive: 0.027
GNE isoform 2 (UniProt Q9Y223) | inactive: -0.072
GPS2 (UniProt Q13227) | inactive: 0.118
GPR89A (UniProt B7ZAQ6) | inactive: -0.016
GOLGA3 (UniProt Q08378) | inactive: 0.016
GP1BB isoform 2 (UniProt P13224) | inactive: -0.032
GMPS (UniProt P49915) | inactive: -0.014
GNA11 (UniProt P29992) | inactive: 0.02
GNAQ (UniProt P50148) | inactive: -0.033
GGCX (UniProt P38435) | inactive: -0.169
GOSR2 isoform 2 (UniProt O14653) | inactive: -0.002
GMDS (UniProt O60547) | inactive: -0.003
GNPTG (UniProt Q9UJJ9) | inactive: 0.088

Part of the list above, as a markdown table.

| Target | log2 fold change |
| --- | --- |
| GPBP1 isoform 2 (UniProt Q86WP2) | inactive: 0.124 |
| GGCX (UniProt P38435) | inactive: -0.169 |

Later entries.

Target | log2 fold change
GNPDA1 (UniProt P46926) | inactive: 0.029
GOT2 (UniProt P00505) | inactive: 0.047
GOLT1B (UniProt Q9Y3E0) | inactive: -0.004
GOLGA7 (UniProt Q7Z5G4) | inactive: 0.003
GLMN (UniProt Q92990) | inactive: -0.009
GOT1 (UniProt P17174) | inactive: 0.022
GMIP (UniProt Q9P107) | inactive: 0.023
GOLPH3 (UniProt Q9H4A6) | inactive: -0.067
GPN1 isoform 5 (UniProt Q9HCN4) | inactive: 0
GPATCH1 (UniProt Q9BRR8) | inactive: 0.052
GNL3 (UniProt Q9BVP2) | inactive: 0.018
GLIPR2 (UniProt Q9H4G4) | inactive: 0.028
GMPPA (UniProt Q96IJ6) | inactive: -0.004
GORAB (UniProt Q5T7V8) | inactive: 0.131
GPRIN1 (UniProt Q7Z2K8) | inactive: 0.015
GNB1 (UniProt P62873) | inactive: 0.042
GIGYF1 (UniProt O75420) | inactive: -0.056
GLUD2 (UniProt P49448) | inactive: -0.001
GOLGB1 (UniProt Q14789) | inactive: 0.019
